The values below come from PubChem BioAssay AID445 (National Center for Advancing Translational Sciences (NCATS), 2006).

Some of the results follow. These are further read-outs of the screen, such as a control signal, another cell line or another target. No call is given for them. The list favours compounds with an active or inconclusive main result. Potencies come from curve fits of mixed quality, noted in brackets.

This assay is described as follows: IkB Signaling. Particulars: ABC-DLBCL IkBa-CBG/CBR dual luciferase ratio (green luciferase fused to IkBa over red control in OCI-Ly3 lymphoma cells), 4 h; measured here: control luc red channel unless noted. In outline: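 In this assay, an IκBα–CBG68 fusion accumulates when IKK-driven degradation is blocked; native CBR normalizes for cell number. OCI-Ly3 cells were treated 4 h with compound and doxycycline, then green and red light read after Chroma-Glo addition.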
Consider `CCc1ccccc1NC(=O)c1cc(S(=O)(=O)N2CCc3ccccc32)ccc1F`, for which the AC50 (as a rule, the midpoint of the concentration-response curve, whichever way the signal moves) was 10 µM [falling, partial curve]. `COc1ccccc1CNc1nc(-c2ccco2)nn1C(=O)c1cc(OC)c(OC)c(OC)c1`: the AC50 was 25.1 µM [falling, single point].

In the case of `Cc1ccccc1CNC(=O)C1=Cc2ccccc2OC1`, the AC50 was 39.8 µM [falling, single point]. For `Cc1ccc(-c2nnc(Nc3ccc(OC(F)(F)Cl)cc3)c3ccccc23)cc1S(=O)(=O)NC(C)(C)CO` the value was 7.94 µM [falling, partial curve]; for `Cc1nc2scc(C)n2c(=O)c1S(=O)(=O)Nc1ccc(N2CCN(S(C)(=O)=O)CC2)cc1`, 6.31 µM [falling, partial curve]; for `CCCCn1c(=N)c(S(=O)(=O)c2ccc(C)cc2)cc2c(=O)n3cc(C)ccc3nc21`, 0.0316 µM [rising, full curve, poor fit]. The value for `CN(C)C1(CNC(=O)COc2ccc([N+](=O)[O-])cc2)CCCCC1` was 2.51 µM [rising, partial curve]; that for `CCn1c(CN2CCOCC2)nc2cc(NC(=O)c3ccccc3[N+](=O)[O-])ccc21` was 6.31 µM [falling, partial curve]; that for `CCN(c1cccc(C(F)(F)F)c1)S(=O)(=O)c1ccc2c(c1)CCN2C(=O)C1CC1` was 15.8 µM [falling, partial curve].

With `COc1cccc(-n2cc(C(=O)Nc3cccc(C(F)(F)F)c3)c3ccccc3c2=O)c1`, the AC50 was 20 µM [falling, partial curve].

With `CC(=O)Nc1cc(-c2nc3cc(Cl)ccc3o2)ccc1C`, the AC50 is 25.1 µM [falling, partial curve, poor fit]. As to `COc1ccc(NC(=O)CCS(=O)(=O)c2nc(-c3cccs3)cc(C(F)(F)F)n2)cc1`, the half-maximal activity concentration (AC50) was 2.51 µM [falling, partial curve].

Consider `Cc1nn2c(CN(C(=O)c3ccco3)c3ccccc3)nnc2c2ccccc12`, for which the AC50 is 12.6 µM [falling, partial curve].

On to `COc1cccc(C2c3c(oc4cc(C)cc(C)c4c3=O)C(=O)N2CCc2ccc(OC)c(OC)c2)c1` (stereo unspecified), for which the AC50 is 12.6 µM [falling, single point]. For `CCn1c(SCc2ccccc2C)nc(=O)c2c(C(=O)OC)cc(C3CC3)nc21` the value was 39.8 µM [falling, single point]; for `COc1ccccc1CNC(=O)CCC1N=C2c3ccccc3N=C(SCC(=O)Nc3ccc(F)cc3)N2C1=O` (stereo unspecified), 7.94 µM [falling, partial curve]; for `CCc1ccc(NS(=O)(=O)c2ccc3oc(=O)c4ncn(CC)c4c3c2)cc1`, 25.1 µM [falling, partial curve]. The value for `COc1ccc(-n2c(Cc3ccccc3)nnc2SCc2nc(-c3cccs3)no2)cc1` was 31.6 µM [falling, single point].

With `Cc1ccc(-c2cc(C(=O)NCc3cnn(C)c3C)c3ccccc3n2)cc1C`, the AC50 is 39.8 µM [falling, partial curve]. For `O=C(C1Cc2ccccc2CN1S(=O)(=O)c1ccc(F)cc1)N1CCCCCC1` (stereo unspecified) the value was 39.8 µM [falling, single point].

For the compound `N#Cc1ccc(S(=O)(=O)N2CCC(Oc3cccc(C(F)(F)F)c3)CC2)cc1`, the AC50 was 15.8 µM [falling, single point].

`O=C(NCc1cccs1)c1nn(-c2ccccc2Cl)nc1CO`: the AC50 is 31.6 µM [falling, single point]. The value for `CC1=C(C(=O)Nc2ccccc2)C(c2ccccc2C)n2nc(SCC(=O)c3ccc(C)cc3)nc2N1` (stereo unspecified) was 6.31 µM [rising, full curve, poor fit]; that for `Cc1[nH]n(-c2ccccc2)c(=O)c1C(c1cc(Cl)ccc1O)c1c(C)[nH]n(-c2ccccc2)c1=O` was 31.6 µM [falling, single point]. The value for `CCOC(=O)C1=C(C)NC(SCC(=O)Nc2cc(C)on2)=C(C#N)C1c1cccs1` (stereo unspecified) was 15.8 µM [falling, partial curve]; that for `O=C(NCCc1csc(-c2ccc(C(F)(F)F)cc2)n1)c1ccc(F)c(F)c1` was 25.1 µM [falling, partial curve]; that for `CCOc1ccc(-c2cc(CCCC(=O)NCCc3ccc(Cl)cc3)no2)cc1` was 3.98 µM [falling, partial curve].

With `COC(=O)c1c(-c2cccs2)csc1NC(=O)c1cccc(Cl)c1`, the AC50 was 0.316 µM [rising, full curve].

In the case of `COC(=O)c1c(-c2cccs2)csc1NC(=O)c1ccc(Br)cc1`, the AC50 is 39.8 µM [falling, single point]. The value for `CCN(c1cccc(C)c1)S(=O)(=O)c1ccc(-n2cccn2)cc1` was 25.1 µM [falling, partial curve]; that for `Cc1nc(Nc2ccncc2)c2oc3ccccc3c2n1` was 25.1 µM [rising, partial curve] [measured here: IkB-luc green channel]. For `Cc1ccc(CN(Cc2ccco2)C(=O)c2ccc(Cl)cc2Cl)cc1` the value was 15.8 µM [falling, partial curve]; for `Cc1cccc(NC(=O)CSc2ncc(-c3ccc(Br)cc3)[nH]2)c1`, 31.6 µM [rising, single point] [measured here: IkB-luc green channel]; for `Cc1cccc(-c2nc(CCNC(=O)COc3ccccc3)cs2)c1`, 39.8 µM [falling, single point]. Regarding `CN(C)CCNC(=O)c1ccc(-n2c(-c3ccccc3)cc3c2CCCCC3)cc1`, the concentration at half-maximal activity (AC50) was 15.8 µM [falling, partial curve]. For `Oc1ccc(-c2[nH]ncc2-c2ccc(Cl)cc2)c(O)c1` the value was 10 µM [falling, partial curve]; for `CC(C)Oc1ccc(CN2CCc3nc(Nc4ccc5c(c4)OCCO5)ncc3C2)cc1`, 20 µM [falling, partial curve]; for `O=C1c2ccccc2S(=O)(=O)N1CC(O)Cn1c2ccccc2c2ccccc21` (stereo unspecified), 10 µM [falling, partial curve]. For `Fc1ccc2nc(Nc3nc4c(s3)CCCC4)sc2c1` the value was 15.8 µM [falling, partial curve].

On to `Cc1ccc(C(=O)Nc2ccccc2C(=O)OCc2cc(=O)n3nc(C(C)C)sc3n2)cc1`, for which the AC50 is 0.2 µM [rising, full curve, poor fit]. `Cc1ccc(C)c(NC(=O)CN(C)S(=O)(=O)c2cccc3cccnc23)c1`: the AC50 is 3.98 µM [rising, full curve]. For `Cc1nc2nc(Cc3ccccc3)[nH]n2c(=O)c1Cl` the value was 12.6 µM [falling, partial curve]. The value for `CCOc1ccccc1NC(=O)C1CCC(CNS(=O)(=O)c2ccc3c(c2)CCCC(=O)N3)CC1` (stereo unspecified) was 20 µM [falling, single point]; that for `Cn1c(C(=O)NCCN2CCc3ccccc3C2)cc2c(=O)n(C)c3ccccc3c21` was 39.8 µM [rising, single point] [measured here: IkB-luc green channel]; that for `COC(=O)c1ccccc1NC(=O)C1=CC(c2ccc3c(c2)OCO3)=NS(=O)(=O)N1C` was 3.16 µM [falling, single point]. The value for `Fc1ccc(-c2noc3ncnc(Nc4ccc(F)cc4F)c23)cc1` was 1 µM [rising, single point]. As for `O=C(CC1N=C2c3ccccc3N=C(SCc3ccc(F)cc3)N2C1=O)NC1CCCCC1` (stereo unspecified), the half-maximal activity concentration (AC50) is 0.00631 µM [rising, full curve, poor fit].

As for `CCOc1ccc(CCNC(=O)c2cccc(Nc3nc4ccccc4nc3-n3nc(C)cc3C)c2)cc1OCC`, the AC50 was 20 µM [falling, partial curve]. With `Cc1ccc(-n2nc3c(N4CCC(C(=O)NC5CCC(C)CC5)CC4)nnc(C)c3c2C)cc1` (stereo unspecified), the AC50 is 12.6 µM [falling, partial curve]. The value for `CC1=C(C(N)=O)C(c2cccc(O)c2)n2ncnc2N1` (stereo unspecified) was 1.26 µM [falling, full curve]. Turning to `Cc1ccc2sc(N(Cc3cccnc3)C(=O)Cc3ccccc3)nc2c1C`, the AC50 was 39.8 µM [falling, single point]. The value for `CC(=O)c1ccccc1OCC(O)CN1CCN(C(c2ccccc2)c2ccccc2)CC1` (stereo unspecified) was 15.8 µM [falling, partial curve]. The value for `Cc1ccc(C(=O)c2cn(Cc3ccccc3F)c3cc4c(cc3c2=O)OCCO4)cc1` was 39.8 µM [falling, single point]; that for `O=C(c1cc(-c2ccccc2O)on1)N1CCc2ccccc2C1` was 39.8 µM [rising, single point] [measured here: IkB-luc green channel]. With `O=C(COc1ccc(Cl)cc1)N(Cc1ccco1)Cc1ccco1`, the AC50 was 39.8 µM [falling, single point]. The value for `COc1ccccc1CNC(=O)CCC(=O)N1CC(C)Sc2ccccc21` (stereo unspecified) was 25.1 µM [falling, partial curve]; that for `Oc1ccccc1-c1nnc(SCCN2CCOCC2)n1Cc1ccccc1` was 39.8 µM [falling, single point]; that for `Cc1cccc(N2CCN(C(=O)CN3C(=O)COc4ccc(S(=O)(=O)N5CCC(C)CC5)cc43)CC2)c1C` was 12.6 µM [falling, partial curve].

For the compound `O=S(=O)(Nc1cccc(C(F)(F)F)c1)c1ccc(NS(=O)(=O)c2ccc3c(c2)OCCO3)cc1`, the AC50 is 15.8 µM [falling, partial curve]. As for `COc1ccc(C(=O)Nc2cccc(-c3cn4ccsc4n3)c2)c(OC)c1`, the AC50 is 20 µM [falling, single point]. On to `Cc1csc2nc(COC(=O)c3cccc(NC(=O)c4cccc(Cl)c4)c3)cc(=O)n12`, for which the AC50 is 0.794 µM [falling, full curve].
